Further values from the same series stand in other lists.
System: L. major lysate proteins
Experiment: Multitargeted bead mixture chemoproteomics, single concentration competition, proteome-wide
Assay type: binding
Details: for fold change: vehicle control = 1

CCCCCCOc1ccc(Cc2cnc(N)nc2N)cc1 [compound 1]
fold change (LMJF.29.2200 GTP-BINDING PROTEIN, PUTATIVE): 0.9
fold change (LMJF.29.2360 ASPARTYL AMINOPEPTIDASE, PUTATIVE): 0.78
fold change (LMJF.30.0580 HYPOTHETICAL PROTEIN, CONSERVED): 0.93
fold change (LMJF.30.1040 HYPOTHETICAL PROTEIN, CONSERVED): 0.78
fold change (LMJF.30.3380 PAS-DOMAIN CONTAINING PHOSPHOGLYCERATE KINASE, PUTATIVE): 0.91
fold change (LMJF.30.3530 HYPOTHETICAL PROTEIN, CONSERVED): 0.66
fold change (LMJF.30.3570 ZINC FINGER-DOMAIN PROTEIN, PUTATIVE): 1.05
fold change (LMJF.31.1110 HY[…], CONSERVED): 0.94
fold change (LMJF.31.2640 2-OXOGLUTARATE DEHYDROGENASE, E3 COMPONENT, […]-LIKE PROTEIN): 0.7
fold change (LMJF.32.0450 AF467951_1 ribosomal protein S2): 1.47
fold change (LMJF.33.3270 DELTA-12 FATTY ACID DESATURASE): 1.09
fold change (LMJF.34.0010 HY[…], CONSERVED): 1.07
fold change (LMJF.34.2610 ATP-DEPENDENT DNA HELICASE, PUTATIVE): 0.72
fold change (LMJF.34.4620 HYPOTHETICAL PROTEIN, CONSERVED): 0.8
fold change (LMJF.35.2150 HYPOTHETICAL PROTEIN, CONSERVED): 0.93
fold change (LMJF.35.2980 CHAPERONE PROTEIN DNAJ, PUTATIVE): 0.6
fold change (LMJF.35.4300 HYPOTHETICAL PROTEIN, CONSERVED): 0.79
fold change (LMJF.35.4880 HYPOTHETICAL PROTEIN, CONSERVED): 0.8
fold change (LMJF.36.0250 EIF3-INTERACTING PROTEIN-LIKE PROTEIN): 0.93
fold change (LMJF.36.1940 INOSINE-GUANOSINE TRANSPORTER): 0.95
fold change (LMJF.36.6980 EUKARYOTIC TRANSLATION INITIATION FACTOR 3 SUBUNIT 8, PUTATIVE): 0.86
fold change (protein AF312586_1 IRON […] B1 (AF312583_1 iron […] B2)): 1.01
fold change (protein CLM00008612.1 UNNAMED PROTEIN PRODUCT): 1.49
fold change (protein LINJ.01.0790 […] 4A, PUTATIVE): 0.85
fold change (protein LINJ.03.0240 RIBOSOMAL PROTEIN L38, PUTATIVE): 1.14
fold change vs vehicle control (protein LINJ.04.0630 HY[…], CONSERVED): 1.09
fold change (protein LINJ.05.0070 DYNEIN LIGHT CHAIN, PUTATIVE): 0.96
fold change (protein LINJ.07.0210 CYTOCHROME C1, HEME PROTEIN, MITOCHONDRIAL PRECURSOR, PUTATIVE): 0.88
fold change vs vehicle control (protein LINJ.08.1020 STRESS-INDUCED PROTEIN STI1): 1.03
fold change (protein LINJ.16.1510 PARAFLAGELLAR ROD PROTEIN 2C): 0.92
fold change (protein LINJ.19.0140 PROTEIN KINASE, PUTATIVE,MITOGEN-ACTIVATED PROTEIN KINASE, PUTATIVE): 1.32
fold change (protein LINJ.20.0630 CYTIDINE TR[…], PUTATIVE): 1.05
fold change (protein LINJ.23.0860 3-KETOACYL-COA THIOLASE, PUTATIVE): 1.05
fold change (protein LINJ.24.2300 60S RIBOSOMAL PROTEIN L12, PUTATIVE): 1.22
fold change (protein LINJ.25.1460 GTP-BINDING PROTEIN, PUTATIVE): 1.06
fold change (protein LINJ.25.2230 SUCCINYL-COA […] SUBUNIT, PUTATIVE): 1.11
fold change (protein LINJ.26.0590 10 KDA HEAT SHOCK PROTEIN, PUTATIVE): 0.86
fold change (protein LINJ.26.0840 40S RIBOSOMAL PROTEIN S16, PUTATIVE): 1.22
fold change (protein LINJ.28.1310 GLUCOSE-REGULATED PROTEIN 78, PUTATIVE): 1.01
fold change (protein LINJ.28.1850 […]-ATP-ASE SUBUNIT 2, PUTATIVE): 1.15
fold change (protein LINJ.28.2280 DYNEIN LIGHT CHAIN LC6, FLAGELLAR OUTER ARM, PUTATIVE): 0.97
fold change (protein LINJ.31.0710 HY[…], CONSERVED): 1.16
fold change (protein LINJ.32.0240 DYNEIN LIGHT CHAIN, FLAGELLAR OUTER ARM, PUTATIVE): 1.26
fold change vs vehicle control (protein LINJ.32.2960 PROTEASOME REGULATORY NON-ATP-ASE SUBUNIT, PUTATIVE): 0.88
fold change (protein LINJ.32.3230 PROTEIN PHOSPHATASE 2A CATALYTIC SUBUNIT, PUTATIVE): 1.15
fold change (protein LINJ.33.0350 HEAT SHOCK PROTEIN 83-1): 1.1
fold change (protein LINJ.35.2250 kinetoplastid membrane protein 11): 0.93
fold change (protein LINJ.35.3840 60S RIBOSOMAL PROTEIN L23, PUTATIVE): 1.19
fold change vs vehicle control (protein LINJ.35.4200 POLY(A)-BINDING PROTEIN 2,POLY(A) BINDING PROTEIN, PUTATIVE): 1.02
fold change (protein LMJF.01.0320 POLY(A) EXPORT PROTEIN, PUTATIVE): 1.12
fold change (protein LMJF.01.0650 MIT[…] BETA SUBUNIT, PUTATIVE): 0.98
fold change (protein LMJF.02.0450 VOLTAGE-DEPENDENT ANION-SELECTIVE CHANNEL, PUTATIVE): 1.01
fold change (protein LMJF.03.0200 DELTA-1-PYRROLINE-5-CARBOXYLATE DEHYDROGENASE, PUTATIVE): 0.9
fold change (protein LMJF.03.0980 ELONGATION INITIATION FACTOR 2 ALPHA SUBUNIT, PUTATIVE): 0.99
fold change vs vehicle control (protein LMJF.04.1230 actin): 1.08
fold change vs vehicle control (protein LMJF.07.0220 HYPOTHETICAL PROTEIN, CONSERVED): 0.79
fold change (protein LMJF.07.0270 […] DEACETYLASE-LIKE PROTEIN): 0.95
fold change (protein LMJF.07.0340 ATP-DEPENDENT DEAD/H RNA HELICASE, PUTATIVE): 1.01
fold change (protein LMJF.07.0640 HYPOTHETICAL PROTEIN, CONSERVED): 0.93
fold change (protein LMJF.07.1000 RNA BINDING PROTEIN-LIKE PROTEIN): 1.23
fold change (protein LMJF.07.1140 PEPTIDE […] REDUCTASE-LIKE): 1.13
fold change (protein LMJF.08.0320 MITOCHONDRIAL ASSOCIATED RIBONUCLEASE, PUTATIVE): 0.61
fold change (protein LMJF.09.0970 ELONGATION FACTOR-1 GAMMA): 0.95
fold change (protein LMJF.10.0210 NUCLEOLAR PROTEIN, PUTATIVE): 1.03
fold change (protein LMJF.11.0220 PTERIN-4-ALPHA-CARBINOLAMINE DEHYDRATASE, PUTATIVE): 1.07
